Experimental findings from doi:10.1101/2025.02.22.639565 are described below.

Protein sequences, listed by entry. Tags and fused reporters are not part of them.
UniProt P50750: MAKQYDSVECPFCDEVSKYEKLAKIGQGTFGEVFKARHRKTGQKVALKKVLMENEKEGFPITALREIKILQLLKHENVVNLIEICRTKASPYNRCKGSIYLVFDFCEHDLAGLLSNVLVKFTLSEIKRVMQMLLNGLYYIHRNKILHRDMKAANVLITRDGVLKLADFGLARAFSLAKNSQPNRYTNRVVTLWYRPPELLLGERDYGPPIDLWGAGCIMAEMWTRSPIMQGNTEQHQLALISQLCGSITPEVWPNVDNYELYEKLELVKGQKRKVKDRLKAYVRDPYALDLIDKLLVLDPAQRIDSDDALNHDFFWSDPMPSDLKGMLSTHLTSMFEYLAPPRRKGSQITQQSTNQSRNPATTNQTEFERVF
UniProt P46937: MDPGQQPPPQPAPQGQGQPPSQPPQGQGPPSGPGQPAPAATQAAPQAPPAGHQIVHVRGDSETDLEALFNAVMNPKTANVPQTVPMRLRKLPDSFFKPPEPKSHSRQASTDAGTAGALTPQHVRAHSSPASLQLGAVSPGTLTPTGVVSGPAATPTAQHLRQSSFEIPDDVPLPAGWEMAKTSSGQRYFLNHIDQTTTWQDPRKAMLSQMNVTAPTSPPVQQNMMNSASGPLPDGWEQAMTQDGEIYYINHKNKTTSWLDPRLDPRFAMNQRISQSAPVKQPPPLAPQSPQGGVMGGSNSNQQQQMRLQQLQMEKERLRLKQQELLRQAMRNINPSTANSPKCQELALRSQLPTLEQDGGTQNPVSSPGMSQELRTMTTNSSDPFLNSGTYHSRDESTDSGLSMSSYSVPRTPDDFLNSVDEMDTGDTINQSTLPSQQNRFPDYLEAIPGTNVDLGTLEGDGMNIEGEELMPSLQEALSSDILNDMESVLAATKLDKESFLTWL

No constants are given. Whether binding was seen depends on the method and setting. Binding seen in cells or lysates may run through a third protein. Some results given as binding are weak or reduced against the parent protein; the word gives no strength.

In this experiment the target is CDK9 (cyclin-dependent kinase 9) (human (endogenous in GA0518)) (UniProt P50750). Briefly: co-IP.

In the case of “YAP1 (Yes-associated protein) (from UniProt P46937 1-504)”, the binding result is on record as “binds”.
